# Inconclusive means that the source gave no clear call. Such entries were picked first, then a sample of the others. Where the call is inconclusive, the potency comes from a doubtful curve fit. Activity calls are given as the source filed them. The call rests on the fitted dose curve; in most records, active means well fitted inhibition curve with a large enough effect; inconclusive means small, poorly fitted or top-dose-only effect; inactive means no such curve, though single readings can be large or run the other way.
# Biological target: Aldehyde dehydrogenase 1A1 (Homo sapiens) (UniProt P00352)
# Assay: qHTS for Inhibitors of the Aldehyde Dehydrogenase Family (ALDH1A1) Confirmatory screens (AID 2061316); further: nearly all actives have a fitted effect of over 65% in size
# Conditions: ALDH inhibition qHTS; activity change, negative = inhibition: at 47.3 µM (top of the series); series mostly up to 47.3 µM
# On the % scale 0 is the no-effect control and ±100 the full control effect; potency means the concentration at half of the fitted maximal effect.
Compound,Potency,"activity change, negative = inhibition",outcome
CN(CCCOc1ccc(Cc2ccccc2)cc1)CCC(=O)O,"inconclusive: 11.3 µM [inhibitor, partial curve]",,
CNc1oc(-c2ccc3c(c2)OCCO3)nc1C#N,"inconclusive: 12.7 µM [inhibitor, partial curve]",,
O=C(C1CCN(c2nc(-c3ccc(Br)cc3)cs2)CC1)N1CCOCC1,,inactive: -11.5%,
N#Cc1c(-c2cccc(Br)c2)no[n+]1[O-],active: 12.7 µM,,
CC(C)c1ccc(S(=O)(=O)c2cnc(SCC(=O)Nc3ccc4c(c3)OCCO4)[nH]c2=O)cc1,"inconclusive: 11.3 µM [inhibitor, partial curve]",,
Clc1cccc(COc2cncc(N3CCNCC3)n2)c1,,inactive: -0.0164%,
O=C(O)c1ccccc1SC1=NS(=O)(=O)c2ccccc21,,,inactive
Oc1ccc(CC2NCCc3cc(O)c(O)cc32)cc1 (centres undefined),,inactive: 1.64%,
O=C(Nc1cncc(-c2cccc3ccccc23)c1)c1cccs1,"inconclusive: 10.1 µM [inhibitor, partial curve]",,
CCOC(=O)[C@H](CCc1ccccc1)N[C@@H](C)C(=O)N1C(=O)N(C)C[C@H]1C(=O)O,,inactive: -2.87%,
COc1ccc(C2Nc3ccccc3C(=O)N2Cc2ccco2)cc1COc1ccccc1 (centres undefined),"inconclusive: 25.2 µM [inhibitor, partial curve]",,
CN(C)c1cccc(Oc2cnc(Nc3cccc(O)c3)nc2)c1,"inconclusive: 11.3 µM [inhibitor, partial curve]",,
O=c1c2ccccc2nc2sc(Nc3ccc(Sc4ccccc4)cc3)nn12,"inconclusive: 20.1 µM [inhibitor, partial curve, poor fit]",,
COc1ccc(-c2c(-c3cc(C(=O)O)ccn3)ncn2C)cc1,,inactive: -27.3%,
Nc1cccc(CNC(=O)c2ccc(Oc3ccc(OCc4cccc(F)c4)cc3)nc2)c1,"inconclusive: 14.2 µM [inhibitor, partial curve, poor fit]",,
CN[C@@H]1[C@H](O[C@H]2[C@H](O[C@@H]3[C@@H](O)[C@H](O)[C@@H](N=C(N)N)[C@H](O)[C@H]3N=C(N)N)O[C@@H](C)[C@]2(O)C=O)O[C@@H](CO)[C@H](O)[C@H]1O,,inactive: -21.4%,
COc1cccc(-c2ccc(NC(=O)C3=C(C(=O)O)CCC3)c(F)c2)c1,active: 12.7 µM,,
Brc1ccc([C@H]2CN3CCSC3=N2)cc1,,inactive: 4.63%,
O=C(CN1C(=O)N/C(=C\c2cccn2-c2cccc(C(=O)O)c2)C1=O)Nc1ccc(F)cc1,"inconclusive: 12.7 µM [inhibitor, partial curve]",,
Cc1nnc(-c2sc(NC(=O)[C@H](C(C)C)n3c(=O)[nH]c4ccccc4c3=O)nc2C)o1,,inactive: -4.95%,
COc1ccc(CC2NCCc3c2[nH]c2ccc(C)cc32)cc1OC (centres undefined),,inactive: -17.8%,
COc1ccccc1Nc1cc2ccccc2c(=O)[nH]1,"inconclusive: 28.3 µM [inhibitor, partial curve]",,
CCCN(CCN1CCN(c2ccccc2OC)CC1)C1CCc2ncsc2C1 (centres undefined),,inactive: 0.738%,
C=C(C)C(=O)O[C@H]1[C@H]2C(=C)C(=O)O[C@@H]2/C=C(\CO)CC/C=C(/C=O)[C@@H]1O,"inconclusive: 17.5 µM [inhibitor, partial curve, poor fit]",,

# Some of the entries so far, tab-delimited:
Compound	Potency	activity change, negative = inhibition	outcome
CNc1oc(-c2ccc3c(c2)OCCO3)nc1C#N	inconclusive: 12.7 µM [inhibitor, partial curve]		
O=C(C1CCN(c2nc(-c3ccc(Br)cc3)cs2)CC1)N1CCOCC1		inactive: -11.5%	

# — PubChem BioAssay (NCATS)
